No constants are given. Whether binding was seen depends on the method and setting. In cells and extracts the contact can be indirect. Some entries that bind do so weakly or less than the wild type. Where a sequence is shown, tags or fusion partners need not be part of it.

Sequences of proteins named here, by UniProt entry; tags and fusion partners are left off.
UniProt Q02085: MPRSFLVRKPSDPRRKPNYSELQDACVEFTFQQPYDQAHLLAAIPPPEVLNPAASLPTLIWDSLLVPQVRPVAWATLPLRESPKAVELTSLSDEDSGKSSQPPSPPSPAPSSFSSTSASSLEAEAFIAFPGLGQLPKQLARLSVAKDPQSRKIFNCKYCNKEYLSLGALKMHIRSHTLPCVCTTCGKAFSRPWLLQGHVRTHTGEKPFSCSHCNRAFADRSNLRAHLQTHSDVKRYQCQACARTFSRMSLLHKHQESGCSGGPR

We go through three molecules from publication doi:10.1101/2021.05.12.443777.

Holding throughout (assay): co-IP
In one experiment the target is T1, V5 tagged ERG (UniProt P81270).
T1 sequence: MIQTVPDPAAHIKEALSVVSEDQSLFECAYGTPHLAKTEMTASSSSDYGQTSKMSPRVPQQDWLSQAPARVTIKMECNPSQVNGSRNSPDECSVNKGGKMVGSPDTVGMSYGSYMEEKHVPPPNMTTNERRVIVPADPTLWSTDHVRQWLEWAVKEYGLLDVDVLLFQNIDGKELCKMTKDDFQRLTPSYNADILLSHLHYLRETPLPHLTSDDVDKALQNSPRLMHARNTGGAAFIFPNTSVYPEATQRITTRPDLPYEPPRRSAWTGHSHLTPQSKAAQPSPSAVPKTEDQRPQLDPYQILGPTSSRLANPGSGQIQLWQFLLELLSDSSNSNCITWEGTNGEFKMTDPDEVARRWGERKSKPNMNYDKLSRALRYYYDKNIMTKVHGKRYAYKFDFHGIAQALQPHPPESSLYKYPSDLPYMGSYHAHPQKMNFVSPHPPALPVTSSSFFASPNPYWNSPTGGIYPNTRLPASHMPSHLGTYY

The next experiment concerns the target T2, TWIST1 (UniProt P26687).
T2 sequence: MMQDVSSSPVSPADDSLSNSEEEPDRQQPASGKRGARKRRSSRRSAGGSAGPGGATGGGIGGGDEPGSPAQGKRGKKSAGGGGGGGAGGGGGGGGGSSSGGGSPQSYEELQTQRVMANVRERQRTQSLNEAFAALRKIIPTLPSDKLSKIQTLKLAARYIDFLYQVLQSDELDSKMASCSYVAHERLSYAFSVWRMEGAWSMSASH

A further experiment deals with SNAI1 (UniProt Q02085).

SNAI1 (from UniProt Q02085 1-264): in the experiment with V5 tagged ERG, the binding entry is on record as “binds”.

B1: TWIST1 (protein, UniProt P26687 1-206)
chain: T2 sequence
Take B1: the binding entry with V5 tagged ERG was “binds”.

B2: V5 tagged ERG (protein, UniProt P81270 1-486)
chain: T1 sequence
Turning to B2, the binding result with TWIST1 and in the experiment with SNAI1 was “binds” each time.
